Amino acid sequences for entries named in this document (tags omitted). A change or cut given only in a name is not applied to a line headed by its entry.
UniProt A5KCP8: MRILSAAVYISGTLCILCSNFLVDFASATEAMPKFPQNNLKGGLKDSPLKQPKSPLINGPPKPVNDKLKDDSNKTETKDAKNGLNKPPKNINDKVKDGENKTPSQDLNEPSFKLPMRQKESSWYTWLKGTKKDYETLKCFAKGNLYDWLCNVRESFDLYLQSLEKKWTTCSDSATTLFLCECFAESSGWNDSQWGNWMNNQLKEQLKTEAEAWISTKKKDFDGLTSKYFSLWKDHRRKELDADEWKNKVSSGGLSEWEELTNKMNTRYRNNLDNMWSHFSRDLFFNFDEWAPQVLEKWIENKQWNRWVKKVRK
UniProt Q8IIK5: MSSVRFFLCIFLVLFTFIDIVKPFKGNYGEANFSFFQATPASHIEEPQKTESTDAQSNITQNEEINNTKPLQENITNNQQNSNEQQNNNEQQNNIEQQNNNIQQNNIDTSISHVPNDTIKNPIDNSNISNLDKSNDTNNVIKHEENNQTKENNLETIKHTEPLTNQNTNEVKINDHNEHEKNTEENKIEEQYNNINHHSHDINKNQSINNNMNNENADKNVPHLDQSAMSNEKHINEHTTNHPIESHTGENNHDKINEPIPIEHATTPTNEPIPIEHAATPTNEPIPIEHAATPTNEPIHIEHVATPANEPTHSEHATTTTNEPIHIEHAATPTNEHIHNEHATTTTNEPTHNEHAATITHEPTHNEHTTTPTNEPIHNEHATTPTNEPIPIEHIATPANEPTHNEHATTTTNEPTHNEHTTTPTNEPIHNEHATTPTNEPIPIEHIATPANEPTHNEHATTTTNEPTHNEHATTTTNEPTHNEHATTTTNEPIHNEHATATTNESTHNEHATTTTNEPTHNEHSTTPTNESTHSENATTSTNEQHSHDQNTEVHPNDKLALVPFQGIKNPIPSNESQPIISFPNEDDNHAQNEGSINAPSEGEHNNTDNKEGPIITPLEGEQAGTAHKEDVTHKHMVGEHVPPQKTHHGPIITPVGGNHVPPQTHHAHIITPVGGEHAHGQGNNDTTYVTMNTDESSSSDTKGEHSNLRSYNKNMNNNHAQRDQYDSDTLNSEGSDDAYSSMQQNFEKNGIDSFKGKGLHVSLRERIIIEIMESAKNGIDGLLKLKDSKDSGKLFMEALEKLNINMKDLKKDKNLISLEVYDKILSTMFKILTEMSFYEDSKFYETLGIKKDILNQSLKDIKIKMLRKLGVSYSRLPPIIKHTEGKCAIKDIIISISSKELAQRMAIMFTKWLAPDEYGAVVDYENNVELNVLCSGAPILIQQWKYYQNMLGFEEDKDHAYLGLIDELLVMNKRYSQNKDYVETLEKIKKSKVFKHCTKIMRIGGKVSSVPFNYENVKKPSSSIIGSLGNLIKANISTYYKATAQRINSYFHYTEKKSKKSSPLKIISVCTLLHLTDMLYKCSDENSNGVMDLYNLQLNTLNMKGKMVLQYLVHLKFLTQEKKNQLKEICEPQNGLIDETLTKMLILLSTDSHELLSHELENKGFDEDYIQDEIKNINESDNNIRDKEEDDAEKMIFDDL
UniProt Q8I5D2: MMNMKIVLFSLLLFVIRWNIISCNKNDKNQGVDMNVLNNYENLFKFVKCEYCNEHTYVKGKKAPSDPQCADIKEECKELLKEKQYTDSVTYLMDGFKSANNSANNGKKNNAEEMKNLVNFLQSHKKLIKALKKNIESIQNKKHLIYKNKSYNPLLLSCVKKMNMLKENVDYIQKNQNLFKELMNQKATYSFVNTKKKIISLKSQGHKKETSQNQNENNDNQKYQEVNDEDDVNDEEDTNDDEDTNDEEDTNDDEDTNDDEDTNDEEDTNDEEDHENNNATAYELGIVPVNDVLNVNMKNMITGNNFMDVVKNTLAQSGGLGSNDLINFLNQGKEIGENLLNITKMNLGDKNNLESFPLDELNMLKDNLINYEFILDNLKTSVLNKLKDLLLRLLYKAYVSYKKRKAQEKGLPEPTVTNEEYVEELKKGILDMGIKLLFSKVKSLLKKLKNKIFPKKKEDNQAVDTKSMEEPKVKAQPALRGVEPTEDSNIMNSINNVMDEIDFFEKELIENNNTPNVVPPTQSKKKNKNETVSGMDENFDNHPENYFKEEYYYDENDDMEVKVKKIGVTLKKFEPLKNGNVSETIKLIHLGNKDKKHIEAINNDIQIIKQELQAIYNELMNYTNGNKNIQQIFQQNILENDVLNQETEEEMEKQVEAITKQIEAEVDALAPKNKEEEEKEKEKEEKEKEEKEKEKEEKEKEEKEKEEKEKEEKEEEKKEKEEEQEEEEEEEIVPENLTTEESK
UniProt Q8IFM9: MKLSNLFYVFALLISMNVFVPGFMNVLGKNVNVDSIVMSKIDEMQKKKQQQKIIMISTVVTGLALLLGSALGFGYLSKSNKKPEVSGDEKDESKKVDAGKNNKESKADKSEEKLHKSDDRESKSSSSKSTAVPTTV
UniProt Q8I6U8: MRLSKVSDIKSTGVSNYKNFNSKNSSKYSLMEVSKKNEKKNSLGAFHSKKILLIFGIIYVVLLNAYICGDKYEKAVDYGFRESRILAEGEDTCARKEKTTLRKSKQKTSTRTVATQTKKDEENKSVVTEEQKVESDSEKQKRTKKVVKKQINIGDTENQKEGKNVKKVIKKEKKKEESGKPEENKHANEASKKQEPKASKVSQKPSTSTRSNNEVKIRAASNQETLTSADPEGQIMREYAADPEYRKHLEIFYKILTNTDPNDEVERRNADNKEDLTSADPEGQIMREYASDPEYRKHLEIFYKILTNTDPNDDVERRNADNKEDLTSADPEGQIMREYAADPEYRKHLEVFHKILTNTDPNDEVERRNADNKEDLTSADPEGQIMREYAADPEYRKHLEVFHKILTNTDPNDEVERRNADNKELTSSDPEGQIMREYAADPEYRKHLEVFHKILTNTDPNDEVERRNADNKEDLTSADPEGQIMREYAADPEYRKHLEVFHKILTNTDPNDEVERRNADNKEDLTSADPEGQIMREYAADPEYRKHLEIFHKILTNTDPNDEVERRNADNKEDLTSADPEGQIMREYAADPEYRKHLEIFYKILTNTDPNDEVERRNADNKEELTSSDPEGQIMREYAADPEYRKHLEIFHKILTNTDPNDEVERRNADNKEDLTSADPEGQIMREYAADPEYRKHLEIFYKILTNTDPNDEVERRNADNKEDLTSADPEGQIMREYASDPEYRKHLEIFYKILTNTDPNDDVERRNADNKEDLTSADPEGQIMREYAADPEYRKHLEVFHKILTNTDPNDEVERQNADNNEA

According to paper PMC4783080:

T1: PvTRAg56.2-GFP fusion protein (P. vivax) (UniProt A5K5F1)
T1 sequence: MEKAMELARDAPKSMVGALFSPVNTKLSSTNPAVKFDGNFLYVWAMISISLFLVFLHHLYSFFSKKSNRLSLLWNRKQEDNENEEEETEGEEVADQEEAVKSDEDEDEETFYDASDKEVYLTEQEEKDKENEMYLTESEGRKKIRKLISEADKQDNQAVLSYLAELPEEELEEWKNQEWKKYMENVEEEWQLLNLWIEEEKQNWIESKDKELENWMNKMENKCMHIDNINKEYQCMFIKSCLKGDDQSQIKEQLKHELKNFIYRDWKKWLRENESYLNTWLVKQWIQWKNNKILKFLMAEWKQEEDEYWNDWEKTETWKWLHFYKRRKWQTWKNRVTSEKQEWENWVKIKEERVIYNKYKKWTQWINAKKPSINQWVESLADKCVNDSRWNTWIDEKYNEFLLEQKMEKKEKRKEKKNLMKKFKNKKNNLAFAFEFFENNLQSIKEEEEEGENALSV


Assays:
[1] = target: PvTRAg36.6-GFP fusion protein (P. vivax) (UniProt A5KCP8); assay: affinity purification with mass spectrometry; co-immunoprecipitation with anti-GFP antibody (Crosslink-IP kit) from trophozoite and schizont stage transgenic P. falciparum 3D7 after streptolysin O treatment; eluates digested in solution and analysed by mass spectrometry
[2] = target: T1, PvTRAg56.2-GFP fusion protein (P. vivax); assay: as above

Molecule | binding [1] | binding [2]
RON4 (from UniProt Q8IIK5) | binds | 
Pf332 (from UniProt Q8IHN4 1-6093) | binds | 
Merozoite surface protein 9 (MSP9) (from UniProt Q8I5D2) |  | binds
Merozoite surface protein 7 (MSP7) of P. falciparum (from UniProt Q8IDX8) |  | binds
ETRAMP4 (P. falciparum) (from UniProt Q8IFM9) | binds | 
Glycophorin binding protein (GBP) (from UniProt Q8I6U8) |  | binds
CLAG9 (protein, UniProt Q8I2G2 1-1340) MIIWFIQPTIFYIIFILARNIQCTYKGDNINEIKSILDNDELYNSLSNLENLLLQTLEQDELKIPIMKGDLDKYLNMSNFKILNELNADGAEKPYIIPTSNCSANDIVKYEHTLKTQITLEYKPEISDMLKRKNIVVRTLKIIKFMQTPMSAYKNTNNIKQSLLEMNKLFTNKEKKLNEHTINALRLRDRIFNTNNLTHRSIKKGISTYMPIDTKSDIIDYDDLLFTNHPSIELMENLDKLANYYHIGIFNMIGSHYIAVGHFITLKLALKNYKKYFEIGSLKYLNWQSILKFNQSDRFKVLDLICDESSWYEGQMKRREQYLKNNIFSTSEECSVLEFLIHHMNKYQMELYSKMHKLSLNVQIYLENKHLKEKFLQFMCRSRKECNIYESDRFKQEQEKGIEFHDNNNYKFSQENDPVSKVVDPFNLFTNYFYFIKYYSVFNSDHIIYMHLLNFVGVLNGNNNAYVSSLYLPGYYNAIQLSYKDQVGLKELYQNLVKCVEKCYIRNRKNRSFSHRIASIFRHKKFDSSKCSICEGTLLYINDQSQDKMSMAQKFYIFVTKILKVNNISSFITNMNIYEDYSNYLMHDLNWYTFLFLFRMTTYKDIPNYSISNAMYLNIKDEDDTKRTMVTFQWMPSTIKRMHNYRIRKYVSIYLLEELEKLIDNKLIEKLKKCITFLIHLNAFLQLDFFSYLNETPANLQHPFPISMMIEARFKDWFIQYLTGFFFINYDDANTRYNMPENMKRGTFIPPKYSKWNIHLKRFIDEAFLMYFNQKHALTLFKYHNPYNISNKIMLMRDTFELYTKNYDQLIFGADIMLLRKTFSCTPMSTKVWDRVKYYLHNIIGNPINFYKHGLIYAYTLNKAMLKEVVNDFFVIYKMNKDLFSETSFLQTVYLLFKKIQGTYFSHRRNDDVSMNNIFMFNVEKNYSKMSQADREKEIHESMASRFFAKNLFTVFQMMFVIQISNDVDKLDRIYGKADMLRLSVHDEPFLRFAYAYYGSMYDKLTNVFFPMNIKKPTIQLKYGKTFIMANLYYLCSVLFSMYNLNNLGLLCEYQAIGSANFHSYKKMSQFIDKKFIPLVFYTLKARTEGIIGKEWYKMVFNDFDGKSMANTWPYFGYYMGGNMLYRNILYFPNHLPEELRKQTKGVELQQPEYEPSVHSIDWQVGYAISHGLSLSFFTFGMMKAYAYFENVIFFLRNSIRIFDRFYSILENYVCMYIKRLFNKLTVDKLLKAMSRAYTSTKKEGAYEEAMVSRVRNKENVVQEVQEDKGTDITPLPTFDIMDSKQNTNYMYNDNEDYFDDLDDNEQFLNSKDLLYYDDGIDRTKRYELIPLQRYRYDPF | binds | 

No constants are given. Whether binding was seen depends on the method and setting. In cells and extracts the contact can be indirect. These calls come from enrichment with a bait or labelling near it, and not all partners need be listed. For some of these results: Where a sequence is shown, tags or fusion partners need not be part of it.
